Measurements as given in the supplement of paper PMC4604168 (melanoma cell lines).
The other results are listed elsewhere or left out. Many values rest on one well or one pass, so single values are uncertain.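 The apoptosis fraction was the count of cleaved-PARP antibody-stained nuclei relative to all DNA-stained nuclei, imaged in 1,536-well plates. Screening doses were set so most cells survived, and baseline and induced cleaved-PARP levels vary greatly across cell lines.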

How the values were obtained:
Assay in all cases: cleaved PARP positive nuclei fraction relative to DMSO control; melanoma cells; higher = more apoptosis
Details in all cases: library dose: low library concentration; 72 h
WM115 = tested on: WM115
WM1716 = tested on: WM1716
WM1745 = tested on: WM1745
WM3526 = tested on: WM3526
WM3619 = tested on: WM3619
WM451Lu = tested on: WM451Lu

| Compound | cleaved PARP positive nuclei fraction (WM115) [%] | cleaved PARP positive nuclei fraction (WM1716) [%] | cleaved PARP positive nuclei fraction (WM1745) [%] | cleaved PARP positive nuclei fraction (WM3526) [%] | cleaved PARP positive nuclei fraction (WM3619) [%] | cleaved PARP positive nuclei fraction (WM451Lu) [%] |
| --- | --- | --- | --- | --- | --- | --- |
| CO[C@@H]1[C@H](N(C)C(=O)c2ccccc2)C[C@H]2O[C@]1(C)n1c3ccccc3c3c4c(c5c6ccccc6n2c5c31)C(=O)NC4 [Midostaurin] + Oc1nc(-c2ccc(C(F)(F)F)cc2)nc2c1CSCC2 [XAV939] (first compound 0.08 µM, partner dose 2 µM) | 211 | 239 | 161 | 69.3 | 95.8 | 132 |
| C[C@]1(c2nc3c(C(N)=O)cccc3[nH]2)CCCN1 [Veliparib] + O=C(O)c1ccc(-c2c[nH]c3ncc(-c4ccccc4)cc23)cc1C1CCCC1 [GSK650394] (first compound 1.4 µM, partner dose 0.16 µM) | 162 | 98.4 | 113 | 61.7 | 128 | 139 |
| OCc1c[nH]c2ccccc12 [Indole-3-carbinol] + NC(=O)Nc1cc(-c2cccc(F)c2)sc1C(=O)N[C@H]1CCCNC1 [AZD7762] (first compound 0.8 µM, partner dose 0.02 µM) | 68.7 | 129 | 97.6 | 64.3 | 122 | 366 |
| C=CCNC1=C2C[C@@H](C)C[C@H](OC)[C@H](O)[C@@H](C)/C=C(\C)[C@H](OC(N)=O)[C@@H](OC)/C=C\C=C(/C)C(=O)NC(=CC1=O)C2=O [Tanespimycin] + C=CCn1c(=O)c2cnc(Nc3ccc(N4CCN(C)CC4)cc3)nc2n1-c1cccc(C(C)(C)O)n1 [MK1775] (first compound 0.002 µM, partner dose 0.02 µM) | 78.5 | 82.6 | 112 | 84.5 | 269 | 55.9 |
| Cn1cncc1[C@@](N)(c1ccc(Cl)cc1)c1ccc2c(c1)c(-c1cccc(Cl)c1)cc(=O)n2C [tipifarnib] + O=S(=O)(c1ccccc1)N(CC(F)(F)F)c1ccc(C(O)(C(F)(F)F)C(F)(F)F)cc1 [T0901317] (first compound 0.01 µM, partner dose 1.4 µM) | 49.2 | 86.2 | 259 | 67.3 | 74.4 | 356 |
| COc1cc(Nc2ncc(F)c(Nc3ccc4c(n3)NC(=O)C(C)(C)O4)n2)cc(OC)c1OC [Tamatinib] + OCCn1cc(-c2cnc3nnn(Cc4ccc5ncccc5c4)c3n2)cn1 [PF04217903] (first compound 0.4 µM, partner dose 1 µM) | 129 | 216 | 104 | 31.9 | 108 | 206 |
| CC(=O)c1c(C)c2cnc(Nc3ccc(N4CCNCC4)cn3)nc2n(C2CCCC2)c1=O [palbociclib] + C[C@@H]1CCN(C(=O)CC#N)C[C@@H]1N(C)c1ncnc2[nH]ccc12 [CP690550] (first compound 0.04 µM, partner dose 1 µM) | 88.3 | 137 | 119 | 97.7 | 151 | 71.3 |
| C[C@]1(c2nc3c(C(N)=O)cccc3[nH]2)CCCN1 [Veliparib] + CCc1ccc(CCOc2ccc(CC3SC(=O)NC3=O)cc2)nc1 [pioglitazone] (first compound 1.4 µM, partner dose 2 µM) | 174 | 68.4 | 123 | 273 | 106 | 58.7 |
| Cn1c(Nc2ccc(C(F)(F)F)cc2)nc2cc(Oc3ccnc(-c4ncc(C(F)(F)F)[nH]4)c3)ccc21 + O=C(O)c1ccc(-c2c[nH]c3ncc(-c4ccccc4)cc23)cc1C1CCCC1 [GSK650394] (first compound 0.08 µM, partner dose 0.16 µM) | 608 | 253 | 133 | 215 | 131 | 44.2 |
| Clc1ccc(Nc2nnc(Cc3ccncc3)c3ccccc23)cc1 [vatalanib] + COCC[n+]1c2c(n(Cc3cnccn3)c1C)C(=O)c1ccccc1C2=O [YM155] (first compound 2 µM, partner dose 0.0004 µM) | 97.2 | 123 | 105 | 45.8 | 97.3 | 66.2 |
| C=CCn1c(=O)c2cnc(Nc3ccc(N4CCN(C)CC4)cc3)nc2n1-c1cccc(C(C)(C)O)n1 + COc1cc2c(Oc3ccc4[nH]c(C)cc4c3F)ncnc2cc1OCCCN1CCCC1 [cediranib] (first compound 0.02 µM, partner dose 0.4 µM) | 122 | 178 | 122 | 117 | 126 | 180 |
| COc1cc(Nc2ncc(F)c(Nc3ccc4c(n3)NC(=O)C(C)(C)O4)n2)cc(OC)c1OC [Tamatinib] + Oc1nc(-c2ccc(C(F)(F)F)cc2)nc2c1CSCC2 [XAV939] (first compound 0.4 µM, partner dose 2 µM) | 56.7 | 147 | 164 | 68.2 | 102 | 44.9 |
| CO[C@@H]1[C@H](N(C)C(=O)c2ccccc2)C[C@H]2O[C@]1(C)n1c3ccccc3c3c4c(c5c6ccccc6n2c5c31)C(=O)NC4 [Midostaurin] + COC(=O)c1sccc1S(=O)(=O)Nc1ccc(Nc2ccccc2)cc1OC [GSK0660] (first compound 0.08 µM, partner dose 1 µM) | 296 | 43.6 | 110 | 77.7 | 118 | 94.7 |
| COCC[n+]1c2c(n(Cc3cnccn3)c1C)C(=O)c1ccccc1C2=O + Nc1cccc2c1CN(C1CCC(=O)NC1=O)C2=O [lenalidomide] (first compound 0.0004 µM, partner dose 1 µM) | 240 | 80 | 104 | 56.6 | 86.9 | 402 |
| CC(=O)c1c(C)c2cnc(Nc3ccc(N4CCNCC4)cn3)nc2n(C2CCCC2)c1=O [palbociclib] + NCC(=O)Nc1ccc(-n2nc(C(F)(F)F)cc2-c2ccc3c(ccc4ccccc43)c2)cc1 [OSU03012] (first compound 0.04 µM, partner dose 1 µM) | 199 | 99.7 | 120 | 74.8 | 129 | 235 |
| CC(=O)c1c(C)c2cnc(Nc3ccc(N4CCNCC4)cn3)nc2n(C2CCCC2)c1=O [palbociclib] + c1cc(-c2cnn3cc(-c4ccc(OCCN5CCCCC5)cc4)cnc23)ccn1 [Dorsomorphin] (first compound 0.04 µM, partner dose 0.4 µM) | 138 | 65.9 | 113 | 116 | 103 | 113 |
| NC(=O)Nc1cc(-c2cccc(F)c2)sc1C(=O)N[C@H]1CCCNC1 + COc1cc2c(Oc3ccc4[nH]c(C)cc4c3F)ncnc2cc1OCCCN1CCCC1 [cediranib] (first compound 0.02 µM, partner dose 0.4 µM) | 66 | 143 | 84 | 63.3 | 116 | 49.2 |
| OCc1c[nH]c2ccccc12 [Indole-3-carbinol] + Cc1cc([N+](=O)[O-])ccc1NS(=O)(=O)c1cc(Cl)ccc1Cl [FH535] (first compound 0.8 µM, partner dose 1 µM) | 90 | 208 | 75 | 218 | 92.6 | 72.9 |
| Cn1c(Nc2ccc(C(F)(F)F)cc2)nc2cc(Oc3ccnc(-c4ncc(C(F)(F)F)[nH]4)c3)ccc21 + CN(C)S(=O)(=O)c1ccc2c(c1)/C(=C/c1cc3c([nH]1)CCCC3)C(=O)N2 [SU6656] (first compound 0.08 µM, partner dose 0.4 µM) | 1150 | 213 | 144 | 121 | 143 | 75.2 |
| Cn1c(Nc2ccc(C(F)(F)F)cc2)nc2cc(Oc3ccnc(-c4ncc(C(F)(F)F)[nH]4)c3)ccc21 + Cn1cc(/C=C2\C(=O)Nc3cccnc32)c2ccccc21 [GW441756] (first compound 0.08 µM, partner dose 0.4 µM) | 824 | 107 | 130 | 128 | 144 | 136 |
| C#Cc1cccc(Nc2ncnc3cc(OCCOC)c(OCCOC)cc23)c1 [erlotinib] + O=C1NC(=O)/C(=C/c2ccc(-c3ccc(F)cc3O)o2)S1 [AS252424] (first compound 0.8 µM, partner dose 1 µM) | 46.8 | 106 | 123 | 74.4 | 103 | 64.9 |
| O=C(CCCCCCC(=O)Nc1ccccc1)NO [vorinostat] + NC(=O)Nc1cc(-c2cccc(F)c2)sc1C(=O)N[C@H]1CCCNC1 [AZD7762] (first compound 0.08 µM, partner dose 0.02 µM) | 75 | 184 | 74.3 | 81 | 179 | 81.7 |
| CC(C)(C)c1cnc(CSc2cnc(NC(=O)C3CCNCC3)s2)o1 + COC(=O)c1sccc1S(=O)(=O)Nc1ccc(Nc2ccccc2)cc1OC [GSK0660] (first compound 0.01 µM, partner dose 1 µM) | 127 | 123 | 102 | 68.7 | 85.6 | 52.7 |
| O=C(Nc1cccc(Cl)c1)Nc1ncc(CCNc2ncnc3ccsc23)s1 + CCCCCCCCCCCC1=C(O)C(=O)C=C(O)C1=O [Embelin] (first compound 0.0008 µM, partner dose 1.2 µM) | 66 | 23.4 | 117 | 66.3 | 72.6 | 49 |
| CC(=O)c1c(C)c2cnc(Nc3ccc(N4CCNCC4)cn3)nc2n(C2CCCC2)c1=O [palbociclib] + COc1ccc(-c2ccc3c(N4CCOCC4)nc(N4C[C@@H](C)O[C@@H](C)C4)nc3n2)cc1CO [KU0063794] (first compound 0.04 µM, partner dose 0.02 µM) | 126 | 576 | 110 | 113 | 125 | 88.6 |
| O=C(CCCCCCC(=O)Nc1ccccc1)NO [vorinostat] + Cn1cc(/C=C2\C(=O)Nc3cccnc32)c2ccccc21 [GW441756] (first compound 0.08 µM, partner dose 0.4 µM) | 43.3 | 63.7 | 95.7 | 69.2 | 89.4 | 59.4 |

Exported as tab-separated lines: part of the list above.
Compound	cleaved PARP positive nuclei fraction (WM115) [%]	cleaved PARP positive nuclei fraction (WM1716) [%]	cleaved PARP positive nuclei fraction (WM1745) [%]	cleaved PARP positive nuclei fraction (WM3526) [%]	cleaved PARP positive nuclei fraction (WM3619) [%]	cleaved PARP positive nuclei fraction (WM451Lu) [%]
CC(=O)c1c(C)c2cnc(Nc3ccc(N4CCNCC4)cn3)nc2n(C2CCCC2)c1=O [palbociclib] + C[C@@H]1CCN(C(=O)CC#N)C[C@@H]1N(C)c1ncnc2[nH]ccc12 [CP690550] (first compound 0.04 µM, partner dose 1 µM)	88.3	137	119	97.7	151	71.3
OCc1c[nH]c2ccccc12 [Indole-3-carbinol] + Cc1cc([N+](=O)[O-])ccc1NS(=O)(=O)c1cc(Cl)ccc1Cl [FH535] (first compound 0.8 µM, partner dose 1 µM)	90	208	75	218	92.6	72.9
